Test results as given in PubChem BioAssay AID540256 (National Center for Advancing Translational Sciences (NCATS), 2011).
Among all 300,000 compounds or so, about 3,700 (1.2%) were called active. Inconclusive means that the source gave no clear call. Such entries were picked first, then a sample of the others. The call rests on the fitted dose curve; tested in HEK293 cells. Where the call is inconclusive, the potency comes from a doubtful curve fit.
On the % scale 0 is the no-effect control and ±100 the full control effect; potency means the concentration at half of the fitted maximal effect.

Test: qHTS for Inhibitors of binding or entry into cells for Lassa Virus; further: nearly all actives have a fitted effect of over 50% in size
Conditions: Lassa virus pseudotype entry inhibition, cell reporter; activity change, negative = inhibition: at 37.9 µM (top of the series) unless noted
In the case of COc1ccc(-n2c(SCC(=O)Nc3ccccc3C)nc(O)c(Cc3ccccc3)c2=O)cc1, the “activity change, negative = inhibition” value is reported as inactive: -4.6%.
With COc1ccc(C(=O)Nc2nc3c(s2)CCCC3)cc1S(=O)(=O)N1CCCc2ccccc21 the Potency was inconclusive: 6.31 µM [inhibitor, full curve, poor fit].
For COCCN(C(=O)C(C)C)c1nnc(-c2cccc(C)c2)s1, the “activity change, negative = inhibition” value was inactive: -18.3%.
For Nc1nc(-c2ccc(Cl)cc2)cc(C(F)(F)F)n1, the Potency was inconclusive: 13 µM [inhibitor, partial curve, poor fit].
For CCCSc1nnc(Sc2nnnn2-c2ccccc2)s1, the Potency was inconclusive: 8.2 µM [inhibitor, partial curve, poor fit].
For Cn1nc(CC(=O)N2CCN(c3ccccc3)CC2)c2ccccc2c1=O, the Potency was inconclusive: 23.1 µM [inhibitor, partial curve, poor fit].
For O=C(O/N=C1/CCSc2ccccc21)c1ccccc1, the “activity change, negative = inhibition” value was inactive: -5.51%.
In the case of Cc1ccc(-c2nn(C)c(=O)c3ccccc23)cc1S(=O)(=O)N1CCOCC1, the “activity change, negative = inhibition” value is reported as inactive: -14.5%.
For COc1ccc(N=Cc2c(O)[nH]c3ccccc23)cc1, the Potency was inconclusive: 29.1 µM [inhibitor, single point].
In the case of COc1ccc(CCNC(=O)c2cc(S(=O)(=O)N(C)c3ccccc3)ccc2Cl)cc1, the Potency is reported as inconclusive: 35.5 µM [inhibitor, single point].
For O=C(COc1ccc2ccccc2c1)N1CCN(c2ccccc2O)CC1, the Potency was inconclusive: 1.58 µM [inhibitor, full curve, poor fit].
In the case of COc1ccc(C(=O)c2ccc(CC#N)s2)cc1, the “activity change, negative = inhibition” value is reported as inactive: 12.6%.
For CCN(CC(=O)Nc1cc(Cl)ccc1C)C(=O)CSCc1ccc(C)cc1, the Potency was inconclusive: 0.199 µM [activator, full curve, poor fit].
For Cc1ccc(-c2[nH]c3ccccc3c2SCCNC(=O)c2ccc(S(=O)(=O)N(C)C)cc2)cc1, the Potency was inconclusive: 8.91 µM [inhibitor, single point].
In the case of N#C/C(=N\Nc1ccc(F)cc1)C(=N)N1CCCCC1, the Potency is reported as inconclusive: 8.2 µM [inhibitor, partial curve, poor fit].
With O=C(CNc1ccc(Br)cc1)Nc1cccc(S(=O)(=O)N2CCCC2)c1 the Potency was inconclusive: 35.5 µM [inhibitor, single point].
For Cc1cc(C)c(NS(=O)(=O)c2ccc(-c3cnc(C4CC4)o3)cc2)c(C)c1, the Potency was inconclusive: 7.08 µM [inhibitor, full curve, poor fit].
For O=[N+]([O-])c1cc(Cl)ccc1N1CCN(c2ccccc2O)CC1, the “activity change, negative = inhibition” value was inactive: 9.32%.
With COCCN(CCOC)C(=S)Nc1ccccc1 the “activity change, negative = inhibition” value was inactive: 0.587% [at 46.1 µM].
For O=C(Cc1ccccc1[N+](=O)[O-])Nc1ccccc1C(=O)N1CCCC1, the “activity change, negative = inhibition” value was inactive: 8.47% [at 46.1 µM].
In the case of CCOC(=O)CCP(=O)(O)C(O)(c1ccccc1)c1ccccc1, the Potency is reported as inconclusive: 10.3 µM [activator, single point].
In the case of COC(=O)N/N=C/c1ccccc1Cl, the Potency is reported as inconclusive: 8.91 µM [activator, partial curve, poor fit].
With Cc1cccc(NC(=O)c2ccc(C(=O)Nc3cccc(C)c3)nc2)c1 the Potency was inconclusive: 6.51 µM [inhibitor, partial curve].
In the case of CCCNC(=O)c1nnsc1Sc1ccc(Cl)cc1, the “activity change, negative = inhibition” value is reported as inactive: 4.07%.
With CC1=C(C(=O)OCc2ccccc2)C(c2cccc(F)c2)NC(=O)N1 (configuration not stated) the Potency was inconclusive: 35.5 µM [inhibitor, partial curve, poor fit].
With COc1ccc(C)cc1NC(=O)CCc1c(C)nn(-c2ccc(N3CCOCC3)nn2)c1C the Potency was inconclusive: 5.62 µM [activator, single point].
For COC(=O)c1ccc(CSc2nc3sc4c(c3c(=O)n2C)CCCC4)o1, the Potency was inconclusive: 23.1 µM [inhibitor, single point].
With COc1cccc(-c2ccc3c(N)c(C(=O)c4ccc(Br)cc4)sc3n2)c1 the Potency was inconclusive: 10 µM [inhibitor, partial curve, poor fit].
In the case of O=C(Nc1ccc(C(=O)N2CCCC2)cc1)C1CCCCC1, the Potency is reported as inconclusive: 1.25 µM [activator, partial curve, poor fit].
For CCn1nc(C(=O)Nc2cccc(C(F)(F)F)c2)c(Cl)c1Cl, the Potency was inconclusive: 0.231 µM [activator, single point].
In the case of CCc1ccc(NC(=O)N(Cc2ccco2)C(C)c2cccs2)cc1 (configuration not stated), the Potency is reported as inconclusive: 7.3 µM [inhibitor, partial curve, poor fit].
In the case of Cc1ccc(NC(=O)c2c(C)oc3ncnc(N4CCCCC4)c23)cc1Cl, the Potency is reported as inconclusive: 35.5 µM [inhibitor, single point].
With Cc1ccc(N(C(=O)c2snc(C(N)=O)c2N)C(C(=O)NCc2ccccc2)c2ccncc2)c(C)c1 (configuration not stated) the “activity change, negative = inhibition” value was inactive: -17.7% [at 46.1 µM].
With CC(C)c1ccc(NC(=O)CN2C(=O)c3ccccc3S2(=O)=O)cc1 the Potency was inconclusive: 10 µM [inhibitor, partial curve, poor fit].
With Cc1cc(C)c(OCC(=O)NCC(C)(C)N2CCOCC2)c(C)c1 the Potency was inconclusive: 1.41 µM [inhibitor, partial curve, poor fit].
With CCn1cc(S(=O)(=O)c2cccc(Cl)c2)c(=O)c2cc(F)c(N3CCC(C)CC3)cc21 the “activity change, negative = inhibition” value was inactive: 14.5% [at 46.1 µM].
For COc1cc(OC)cc(-c2nc(-c3ccc(Br)cc3)no2)c1, the Potency was inconclusive: 10.3 µM [activator, partial curve].
For Cc1nc(N=Nc2ccc(C(=O)O)cc2)c(COP(=O)(O)O)c(C=O)c1O, the Potency was inconclusive: 0.0041 µM [activator, full curve, poor fit].
In the case of CCOC(=O)OC[C@H]1O[C@H](c2ccc(C(C)=O)cc2)C=C[C@H]1Oc1ccc(-c2ccccc2)cc1, the Potency is reported as inconclusive: 6.68 µM [inhibitor, single point].
For O=C(Cn1c(=O)oc2cc(S(=O)(=O)NCc3ccccc3)ccc21)Nc1ccc(F)c(Cl)c1, the “activity change, negative = inhibition” value was inactive: 8.39% [at 46.1 µM].
For CCC(=O)n1nc(-c2cccnc2)nc1NCc1ccc(F)cc1, the Potency was inconclusive: 0.501 µM [activator, single point].
For COCCSc1nnc(NC(=O)Cc2ccc(OC)cc2)s1, the Potency was inconclusive: 23.1 µM [inhibitor, partial curve, poor fit].
